Experimental data reported in PubChem BioAssay AID1508600 (Functional Genomics Laboratory (NCATS/FGL), 2020).
In all, about 53,000 sequences went through this assay and about 3,700 (7%) were called active.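 Rule for the calls: active = gene knockdowns whose robust z-score for IL-1 alpha signal is at least 2 or at most -2, so actives lie on both sides; inactive = the rest.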 This is one part of the list.

Experiment: Components of the Cytosolic LPS Sensing Pathway: Gene Identification via Genome-wide siRNA Screen;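 note: robust z of the log signal after scaling to non-targeting control siRNA wells of the plate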
Details: RAW264.7 macrophages, IL-1a HTRF, actives lie on both sides, screened at 100 nM (by protocol), cells primed 5 h with Pam3CSK4 first
Outline: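 Mouse macrophage line RAW264.7 is transfected with siRNA (100 nM final), grown 48h, primed with TLR ligand Pam3CSK4 5 h and given intracellular LipidA 24 h. IL-1a in supernatant is read by HTRF and viability by luminescence.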

| Sequence | z-score |
| --- | --- |
| CCUCGUAGGGCCUAUGGUATT against Cyth4 | active: -2.17 |
| GCCACCAGUGCUUUUCAAGTT against Ap5b1 | inactive: -0.41 |
| GGGAGCAGAUUUUAAGAGUTT against Rala | inactive: 0.763 |
| GGAGAUGAAGUUCCAAAAGTT against Ifi27l2a | inactive: 1.54 |
| CCAGUGUUUACUCAAACAGTT against Snai2 | inactive: 0.792 |
| GCAUGUUUCCCUACUAUGATT against Dcaf8l | inactive: -1.57 |
| GGUAUCAUCUAUAGAGACUTT against Prkch | inactive: -0.265 |
| GGACAAGGCAGUGUUUCCATT against Sost | inactive: 0.878 |
| GGCCAGCAGAUAUAUAGAGTT against Ubxn8 | inactive: 0.438 |
| GGUGACAACUGACUUCGAATT against Pramel32 | inactive: 0.321 |
| CCAGAUUCUAAUACGUACATT against Sec63 | inactive: 0.436 |
| CCUGUACCCGAACAUACCATT against Fabp12 | inactive: -1.06 |
| GCCCGAAAAAGAGAACUGATT against Wbp11 | inactive: 0.056 |
| GCUUUAGGUCCAAUAAAAUTT against Wdr53 | inactive: -0.87 |
| GCAACUCUAGUGUAUGGGATT against Slc39a4 | inactive: 0.762 |
| GGUGGAAUUUUCAACUUACTT against Nkx3-1 | active: 5.36 |
| GGAGUGCAAGGACUUUGUGTT against Ift20 | inactive: -0.738 |
| GCUUGGCUUCAGCAUAUGCTT against Phox2b | inactive: -0.867 |
| GCUGACCAUUUUGAUGCCCTT against Adi1 | inactive: -0.0381 |
| GGAGACCUUCAACUUGUACTT against Ephb1 | inactive: -0.134 |
| GGCGUAGGUCACCACAUUGTT against Spin2c | inactive: 1.51 |
| GCACAGACUGAGAGGAAAATT against Mog | inactive: 0.0718 |

| Sequence | z-score |
| --- | --- |
| GGCUCAGCAUGUGUCAUACTT against Slc25a39 | inactive: 1.77 |
| GCACAUGUGUUUAUACAUUTT against Sfxn3 | inactive: -0.556 |
| GGAGUUGGAGGAAAGAAUUTT against Prl3b1 | inactive: 0.655 |
| GGCCAUUUUGCCUAAGAAGTT against Fam207a | inactive: -0.757 |
| GUUUAUAGGUAACUGUCACTT against Defb11 | inactive: -0.0983 |
| CGGUUAGAGCAUUAAGUUCTT against Lias | inactive: 0.817 |
| GCCACAUCAGAUGAAGUCCTT against Ppm1e | active: -2.26 |
| GGAUACUCUCAGGACGUGATT against Ncbp2 | active: -2 |
| GCUUUGAAGUUCCUCAUGCTT against Otulinl | inactive: 0.469 |
| GGGAGUAAAAAGGUGAUCATT against Gfra2 | inactive: -0.924 |
| GGGAGGUGAAACUGAGAAUTT against Mcpt4 | inactive: 1.01 |
| GCUGCGUUACUGGAAGUUUTT against Loxl2 | inactive: 1.12 |
| GCAGUCAAAACCUAAAAGUTT against Slc25a40 | inactive: 0.116 |
| GGACAAGUAUGAAUGUCUATT against Ptk2b | inactive: 1.25 |
| CCCUGUCAUGUCAGUGUGATT against Nat8f1 | inactive: -1.48 |
| GGAAAAGAUGAAGUGGUUUTT against H2bc6 | inactive: 0.0279 |
| GGCUGAAAACAUCGUGGUCTT against Sncg | inactive: 0.617 |
| GGUGUAGACUAAGACAAUATT against Trmt1 | inactive: -0.156 |
| GGACUCUGAAACCAUUAAATT against Fmo4 | inactive: -1.4 |
| GGGCAUUAAAGAAUCCAUUTT against Olfr1008 | inactive: -0.202 |
| GGCAUUUGAAGAUGAAAUGTT against Bzw2 | inactive: -0.00635 |
| GGGAAGAAGCUUUGUGAUUTT against Adprm | inactive: -1.15 |

| Sequence | z-score |
| --- | --- |
| GCACGUGAUGCAAGUUCUATT against Rmnd1 | inactive: -0.74 |
| GGAGCUAGAACAGUUUGCCTT against Pou5f1 | inactive: 1.34 |
| CCGAUUGAUAAAGUCACAUTT against Zfat | inactive: 0.241 |
| GGCUUUAGUAGACUACUUCTT against Hspa4l | inactive: 0.411 |
| GAUCCUCACGAAAUAGGUATT against Olfr1372-ps1 | inactive: 0.737 |
| GCGACAACAUGCUUAGCACTT against Chil1 | inactive: -0.695 |
| GGCAUUCAGAACUUACUAUTT against Ofd1 | inactive: 0.612 |
| GGCCGGGAAGAAAGAGAAATT against Ptn | inactive: 0.514 |
| GGCCCUGAGAAACUAUAGGTT against Myh1 | inactive: 0.437 |
| GCCGUUCAAAAAUUUGUCCTT against Cyp11b2 | inactive: 0.721 |
| CGAAGCUGCAAAGGAGAAGTT against Igf1 | inactive: 0.505 |
| CGGUUCCACUUCAAAUGACTT against Hsd17b2 | inactive: 0.72 |
| GCAUCACUAGAUUUGGGCATT against Plekhg4 | inactive: 0.128 |
| GGAAGAUGUGAAGAUUUAATT against Acvr1b | inactive: 1.89 |
| CGACAUAAAGGCUUGUCAATT against Rabl3 | inactive: 0.518 |
| GGAGAUUCGCAUGCUCAUCTT against Ankrd44 | inactive: -1.77 |
| GCACCUAGAUUGAUCAUAGTT against Olfr1183 | inactive: -0.894 |
| GGAAAGGUGACCAAGAACUTT against Cadm3 | inactive: -1.34 |
| GGUGUUUCGUCUACCCUUCTT against Olfr370 | inactive: 1.49 |
| GCGACACAGUAUGCUUAAGTT against Ggnbp2 | inactive: -1.63 |
| GGGAACUCCACUAAGGAAATT against Slc26a1 | inactive: 1.8 |
| GGUGGUCCGUAAAGUGGUUTT against Slc25a15 | inactive: 1.75 |

Part of the list above, with tabs.
Sequence	z-score
GCGACAACAUGCUUAGCACTT against Chil1	inactive: -0.695
GGCAUUCAGAACUUACUAUTT against Ofd1	inactive: 0.612
GGCCGGGAAGAAAGAGAAATT against Ptn	inactive: 0.514
GGCCCUGAGAAACUAUAGGTT against Myh1	inactive: 0.437

In a second layout: entries from further up
Sequence	z-score
GCACGUGAUGCAAGUUCUATT against Rmnd1	inactive: -0.74
GGAGCUAGAACAGUUUGCCTT against Pou5f1	inactive: 1.34
CCGAUUGAUAAAGUCACAUTT against Zfat	inactive: 0.241
GGCUUUAGUAGACUACUUCTT against Hspa4l	inactive: 0.411

More results:

| Sequence | z-score |
| --- | --- |
| GGACCAGAUUCACCAUAUUTT against Ifi44 | inactive: -1.99 |
| GGAAUUCUUUCCAAACUGGTT against Steap1 | inactive: -0.0141 |
| GGAAAAUAAAAUUGCAUGCTT against Oas1d | inactive: 0.15 |
| GCUUAAUCAACUGGUACUATT against Olfr19 | inactive: -1.7 |
| GAGAGGGCAUAAUGGUUUUTT against H3c3 | active: 4.58 |
| GGCAUGAAUACAUCACAGCTT against Vmn1r220 | inactive: -0.808 |
| GCUGUCAGCAAAUAAAUGCTT against Uqcr10 | inactive: 1.24 |
| GGCUGUCAUGGGUGAAUCCTT against Sprr2e | inactive: 0.31 |
| GGAGAAAAGUCUACAGAAATT against Areg | inactive: 0.806 |
| GGGAAAGGAUUUUUACAUUTT against Ctdsp1 | inactive: 1.83 |
| GGAUAUUACACCUACUUCUTT against Mmp24 | inactive: -0.25 |
| GGAGAAGGUGCUCAAGUUGTT against Henmt1 | active: -2.45 |
| GGACCAAUCUAGAGCCCAUTT against Krt90 | inactive: -0.393 |
| GGGAAAAAGAAAGCCCUUGTT against Olfr706 | inactive: 0.883 |
| GGAGACUGUGAAGUUUGUATT against Manf | inactive: -0.511 |
| GGAAAAGAAGACAUUUCUCTT against Osbpl8 | inactive: -0.565 |
| CGAAGUACGAGAAACACGUTT against Smim19 | inactive: -0.969 |
| GGAUCAGAACACUUUGGCATT against Tsen34 | inactive: -0.228 |
| GCCACAACCACCUGAACUUTT against Amigo1 | inactive: -0.854 |
| GCUAGUUGGAGCUAGAUUATT against Dock5 | inactive: 0.159 |
| GGAACCAAUCCAUAUUUGATT against Tnks | inactive: 1.51 |
| GCCCUAGAUCAGGAGAUCATT against Rps17 | inactive: 0.0945 |

| Sequence | z-score |
| --- | --- |
| GGUAUAUUGUGCCAGCACATT against Olfr705 | inactive: 0.00345 |
| GGGUUUGGAAACUACAUUUTT against Phka2 | inactive: 1.57 |
| UGUUACUGGACUCUCCACATT against Olfr320 | inactive: 0.372 |
| CUCCGACCAUACUGGAAGATT against Arpp21 | inactive: -0.406 |
| CCUUGAUACCUUUCCAUGUTT against 9130008F23Rik | inactive: -0.68 |
| CCACCUCAAGUCAAAGACUTT against Cggbp1 | inactive: -0.445 |
| CCUGAGACUGCAUCUUUUCTT against Slc10a7 | inactive: -0.693 |
| GUGCUUUUCGACUGCAUGATT against Mfsd4b5 | inactive: -0.609 |
| GGACCAAACGAUUUCUCACTT against Olfr284 | inactive: -0.438 |
| GGACUUAGGUUUGUUUAAATT against Frat1 | inactive: -0.347 |
| GCGAACUCAAGCUGUAACCTT against Grhpr | inactive: -0.665 |
| GGACAACGUGGACUACUGGTT against Pcdh15 | inactive: -0.835 |
| GGAAGCUGUCCAAAAUGAGTT against Hnf4a | active: 2.55 |
| GGUCCAGAUCAGUUGACAGTT against Srsf5 | inactive: 0.812 |
| CCAGGAUUCGGACAAAACUTT against Mettl16 | inactive: -1.47 |
| GGAAGAGGAAGAUAUUGAUTT against Bbx | inactive: -0.799 |
| CCACCACCUAUUACAAUGATT against Lcn5 | inactive: 1.72 |
| GCUUCAAUAACUGCGCAAGTT against Zkscan2 | inactive: 0.547 |
| GGUUUUCCUAAACUCUUGATT against Usp6nl | inactive: -0.3 |
